Out of some 290,000 compounds screened, about 110 (0.038%) were called active. Inconclusive means that the source gave no clear call. Such entries were picked first, then a sample of the others. Calls come from the whole dose curve; as a rule, active = well fitted inhibition curve with a large enough effect in the polarisation, with a control signal flat (not every such curve was filed as active); inconclusive = small, poorly fitted or top-dose-only effect, or effect the other way, or a change in a side signal; inactive = no such curve, though single readings can be large or run the other way; the % refers to the polarisation. Potencies beside an inconclusive call are fits to weak or partial responses and may not hold up. A note “side channel” means that the fit belongs to a control or component signal, not to the main read-out.
target: Histone-lysine N-methyltransferase 2A (Homo sapiens) (UniProt Q03164); assay: qHTS Fluorescence Polarization Assay for Inhibitors of MLL CXXC domain - DNA interaction; details: MLL-CXXC / FITC-HOXA9 DNA fluorescence polarization; activity change, negative = inhibition: at 115 µM (top of the series)
Outline: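 Steps: dispense CXXC domain solution (7 uM) → pin compounds or unlabeled HOX-A9 DNA control → 5 min ambient → add FLSN-HOX-A9 solution (50 nM) → spin → 30 min ambient → fluorescence polarization. Tris pH 7.5/NaCl/DTT/BSA buffer.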
Potency is the fitted concentration of half-maximal effect.

The chains behind the UniProt entries cited, without tags or fusion partners.
UniProt Q03164, whole entry, looked up: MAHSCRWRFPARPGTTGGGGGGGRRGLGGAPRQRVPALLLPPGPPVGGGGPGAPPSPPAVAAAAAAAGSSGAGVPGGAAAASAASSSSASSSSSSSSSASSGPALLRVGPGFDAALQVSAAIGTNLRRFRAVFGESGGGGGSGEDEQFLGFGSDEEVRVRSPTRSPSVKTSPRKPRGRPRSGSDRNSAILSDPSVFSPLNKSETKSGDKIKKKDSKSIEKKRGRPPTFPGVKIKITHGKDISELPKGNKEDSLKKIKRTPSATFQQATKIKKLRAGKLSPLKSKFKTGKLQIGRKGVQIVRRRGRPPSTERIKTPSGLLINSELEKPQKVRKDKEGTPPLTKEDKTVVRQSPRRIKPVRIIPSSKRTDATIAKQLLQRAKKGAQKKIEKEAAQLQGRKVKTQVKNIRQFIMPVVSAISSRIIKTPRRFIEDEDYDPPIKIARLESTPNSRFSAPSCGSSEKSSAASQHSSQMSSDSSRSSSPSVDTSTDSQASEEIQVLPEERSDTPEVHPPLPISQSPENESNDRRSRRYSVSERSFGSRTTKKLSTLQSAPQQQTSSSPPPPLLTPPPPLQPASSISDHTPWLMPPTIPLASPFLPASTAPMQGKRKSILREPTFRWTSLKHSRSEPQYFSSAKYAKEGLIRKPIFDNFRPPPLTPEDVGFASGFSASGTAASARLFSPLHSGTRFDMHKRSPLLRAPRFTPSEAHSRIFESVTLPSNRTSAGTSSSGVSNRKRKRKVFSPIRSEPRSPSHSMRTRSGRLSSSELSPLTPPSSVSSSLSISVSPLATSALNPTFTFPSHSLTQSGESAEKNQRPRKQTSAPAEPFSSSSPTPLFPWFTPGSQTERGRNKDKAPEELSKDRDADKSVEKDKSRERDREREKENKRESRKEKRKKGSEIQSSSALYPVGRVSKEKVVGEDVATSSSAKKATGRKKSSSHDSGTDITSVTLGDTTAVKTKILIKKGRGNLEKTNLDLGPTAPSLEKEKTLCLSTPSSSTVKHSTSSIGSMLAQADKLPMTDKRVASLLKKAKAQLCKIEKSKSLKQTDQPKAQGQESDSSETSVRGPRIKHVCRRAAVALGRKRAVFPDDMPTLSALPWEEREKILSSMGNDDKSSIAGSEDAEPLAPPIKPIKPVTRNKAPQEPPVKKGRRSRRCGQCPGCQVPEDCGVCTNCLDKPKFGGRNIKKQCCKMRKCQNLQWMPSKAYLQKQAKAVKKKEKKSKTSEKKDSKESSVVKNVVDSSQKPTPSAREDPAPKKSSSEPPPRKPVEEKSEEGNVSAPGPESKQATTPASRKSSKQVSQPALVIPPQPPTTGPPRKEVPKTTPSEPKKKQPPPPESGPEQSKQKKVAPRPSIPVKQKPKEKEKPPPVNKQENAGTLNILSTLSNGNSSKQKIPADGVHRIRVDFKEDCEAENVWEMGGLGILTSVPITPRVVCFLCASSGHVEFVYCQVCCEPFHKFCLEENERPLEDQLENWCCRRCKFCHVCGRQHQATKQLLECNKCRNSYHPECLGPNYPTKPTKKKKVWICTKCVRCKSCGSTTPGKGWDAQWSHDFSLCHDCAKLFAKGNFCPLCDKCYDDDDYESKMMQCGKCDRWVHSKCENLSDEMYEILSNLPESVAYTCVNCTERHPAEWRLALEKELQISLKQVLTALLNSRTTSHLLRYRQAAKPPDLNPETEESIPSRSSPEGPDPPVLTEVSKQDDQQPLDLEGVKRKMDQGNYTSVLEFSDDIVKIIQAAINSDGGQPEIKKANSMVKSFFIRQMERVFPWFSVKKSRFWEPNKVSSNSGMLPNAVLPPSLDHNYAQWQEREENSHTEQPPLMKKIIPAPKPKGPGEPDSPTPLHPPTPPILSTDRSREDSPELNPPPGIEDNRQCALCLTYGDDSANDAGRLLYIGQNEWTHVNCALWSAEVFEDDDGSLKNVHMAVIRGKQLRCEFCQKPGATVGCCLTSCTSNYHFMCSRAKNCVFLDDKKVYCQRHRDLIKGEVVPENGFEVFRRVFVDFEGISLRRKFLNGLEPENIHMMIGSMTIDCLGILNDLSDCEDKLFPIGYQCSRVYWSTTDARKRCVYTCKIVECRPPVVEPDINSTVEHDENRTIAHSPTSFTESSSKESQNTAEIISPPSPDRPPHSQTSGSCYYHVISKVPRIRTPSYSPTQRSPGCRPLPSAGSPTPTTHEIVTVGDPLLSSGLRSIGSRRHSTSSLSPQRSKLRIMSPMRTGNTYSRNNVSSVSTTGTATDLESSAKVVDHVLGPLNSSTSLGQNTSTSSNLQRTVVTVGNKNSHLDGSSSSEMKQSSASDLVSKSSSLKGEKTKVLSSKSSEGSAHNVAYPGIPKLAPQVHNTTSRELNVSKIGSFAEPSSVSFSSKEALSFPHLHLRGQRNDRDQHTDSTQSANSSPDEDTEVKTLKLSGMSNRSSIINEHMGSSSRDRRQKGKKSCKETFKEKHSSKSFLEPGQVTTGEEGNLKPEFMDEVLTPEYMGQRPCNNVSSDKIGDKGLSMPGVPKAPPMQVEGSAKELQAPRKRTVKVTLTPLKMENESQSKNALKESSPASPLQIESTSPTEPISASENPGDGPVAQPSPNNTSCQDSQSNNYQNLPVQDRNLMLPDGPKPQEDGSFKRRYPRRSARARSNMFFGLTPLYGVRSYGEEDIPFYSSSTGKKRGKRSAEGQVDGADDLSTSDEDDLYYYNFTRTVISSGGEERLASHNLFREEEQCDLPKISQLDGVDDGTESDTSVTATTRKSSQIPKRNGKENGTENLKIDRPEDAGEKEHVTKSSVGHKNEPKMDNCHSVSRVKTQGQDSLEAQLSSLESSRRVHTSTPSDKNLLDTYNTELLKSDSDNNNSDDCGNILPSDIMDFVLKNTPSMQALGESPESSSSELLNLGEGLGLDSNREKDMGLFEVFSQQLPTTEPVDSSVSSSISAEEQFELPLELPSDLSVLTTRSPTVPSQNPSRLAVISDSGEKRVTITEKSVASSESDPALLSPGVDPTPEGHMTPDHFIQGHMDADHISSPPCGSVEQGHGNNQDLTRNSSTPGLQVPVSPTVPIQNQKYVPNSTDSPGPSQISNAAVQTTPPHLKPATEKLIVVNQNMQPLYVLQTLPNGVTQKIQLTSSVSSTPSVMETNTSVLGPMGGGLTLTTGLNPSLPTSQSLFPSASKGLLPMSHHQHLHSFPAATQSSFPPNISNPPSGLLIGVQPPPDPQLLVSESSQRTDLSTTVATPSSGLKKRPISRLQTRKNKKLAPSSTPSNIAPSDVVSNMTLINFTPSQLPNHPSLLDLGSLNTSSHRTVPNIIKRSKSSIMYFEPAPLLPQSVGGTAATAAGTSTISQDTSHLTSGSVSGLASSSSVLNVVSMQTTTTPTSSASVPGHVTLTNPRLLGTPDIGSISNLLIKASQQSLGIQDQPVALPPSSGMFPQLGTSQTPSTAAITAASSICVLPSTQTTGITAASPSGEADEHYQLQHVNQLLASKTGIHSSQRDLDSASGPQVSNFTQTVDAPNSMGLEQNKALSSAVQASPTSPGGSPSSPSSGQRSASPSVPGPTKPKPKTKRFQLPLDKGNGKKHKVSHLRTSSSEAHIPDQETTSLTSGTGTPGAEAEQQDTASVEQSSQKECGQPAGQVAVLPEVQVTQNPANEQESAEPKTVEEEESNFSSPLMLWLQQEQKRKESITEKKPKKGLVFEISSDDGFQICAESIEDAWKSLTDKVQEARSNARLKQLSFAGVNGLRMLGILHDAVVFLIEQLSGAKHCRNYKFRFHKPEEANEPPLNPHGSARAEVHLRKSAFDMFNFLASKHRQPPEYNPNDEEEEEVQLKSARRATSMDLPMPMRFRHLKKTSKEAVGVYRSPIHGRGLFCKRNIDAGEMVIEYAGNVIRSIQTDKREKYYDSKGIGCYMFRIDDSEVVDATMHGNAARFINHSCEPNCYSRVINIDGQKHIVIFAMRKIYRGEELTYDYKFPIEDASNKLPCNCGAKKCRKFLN

| Compound | Potency | activity change, negative = inhibition |
| --- | --- | --- |
| Cc1cccc(NC(=O)Cc2ccc(-c3ccccc3)cc2)n1 | inconclusive: 44.7 µM [fluorescent, side channel, partial curve] | – |
| CN(C)CCNS(=O)(=O)c1ccc(N2CCc3ccccc32)c([N+](=O)[O-])c1 | – | inactive: 17.4% |
| COc1cc(/C=N/Nc2ccc(S(N)(=O)=O)cc2[N+](=O)[O-])cc(OC)c1O | inconclusive: 100 µM [inhibitor, partial curve, poor fit] | – |
| COc1ccc(CNC(=S)Nc2cccc(F)c2)cc1 | – | inactive: -8.03% |
| Cc1ccc(OCC(=O)Nc2cc(NC(=O)COc3ccc(C)cc3)cc(C(=O)O)c2)cc1 | inconclusive: 39.8 µM [inhibitor, partial curve] | – |
| O=C(NCc1ccco1)c1nn2cccnc2c1Cl | inconclusive: 7.94 µM [quencher, side channel, single point] | – |
| COc1ccc(C(=O)c2c[nH]c(C(=O)NCc3cccs3)c2)cc1 | inconclusive: 7.08 µM [fluorescent, side channel, full curve, poor fit] | – |
| Cc1ccc(CN2CCNC(=O)C2CC(=O)N(C)Cc2cnccn2)cc1 (stereo not drawn) | inconclusive: 3.16 µM [quencher, side channel, partial curve] | – |
| CC(=O)c1cccc(NC(=O)CSc2ccc(-c3ccccn3)nn2)c1 | inconclusive: 10 µM [quencher, side channel, single point] | – |
| Cc1cccc(/C(N)=N/OC(=O)c2ccc3c(c2)OCO3)c1 | inconclusive: 70.8 µM [inhibitor, single point] | – |
| Cc1nc2ccccc2c(=O)n1/N=C/c1ccc(O)c(O)c1O | inconclusive: 15.8 µM [fluorescent, side channel, single point] | – |
| O=C(O)c1cccc(S(=O)(=O)N(Cc2ccccc2)c2ccc(Cl)cc2)c1 | inconclusive: 10 µM [fluorescent, side channel, single point] | – |
| Cc1ccc(N=Cc2cc3c(cc2O)OC(N)=C(C#N)C3c2ccccc2)cc1 (stereo not drawn) | inconclusive: 70.8 µM [fluorescent, side channel, single point] | – |
| COc1ccc(CCNC2CCc3ccccc3C2)cc1 (stereo not drawn) | inconclusive: 7.94 µM [quencher, side channel, full curve, poor fit] | – |
| Cc1cccc(NS(=O)(=O)c2ccc3c(c2)Cc2cc(S(=O)(=O)Nc4cccc(C)c4C)ccc2-3)c1C | inconclusive: 28.2 µM [fluorescent, side channel, single point] | – |
| Cc1ccc(OCC(=O)Nc2ccc(N3CCCC3)cc2)cc1C | inconclusive: 89.1 µM [quencher, side channel, single point] | – |
| CC(=O)Nc1ccc(N=Cc2c(O)c3ccccc3oc2=O)cc1 | inconclusive: 35.5 µM [quencher, side channel, single point] | – |
| O=C(NC1CCCCC1)N1CCC(c2nc3ccccc3[nH]2)CC1 | – | inactive: 8.42% |
| COc1ccc(-c2ccnc3nc(N4CCN(c5ccccc5)CC4)nn23)cc1 | inconclusive: 22.4 µM [quencher, side channel, partial curve] | – |
| CCOc1ccccc1N1C(=O)CC(Sc2ncccc2C(=O)O)C1=O (stereo not drawn) | – | inactive: -1.97% |
| COc1ccc(C(=O)C2CCCN(C/C=C/c3ccccc3OC)C2)c(OC)c1 (stereo not drawn) | – | inactive: -8.75% |

| Compound | Potency | activity change, negative = inhibition |
| --- | --- | --- |
| O=C(CN1C(=O)C2CCCCC2C1=O)Nc1nc(-c2ccccn2)cs1 (stereo not drawn) | inconclusive: 17.8 µM [inhibitor, partial curve] | – |
| Cc1ccnc(N2C(=O)c3cccc4c([N+](=O)[O-])ccc(c34)C2=O)c1 | inconclusive: 70.8 µM [inhibitor, single point] | – |
| Cc1ccc(Nc2nc(N)nc(CN3CCN(C)CC3)n2)cc1C | – | inactive: 4.96% |
| O=C1c2cccc3c(O)ccc(c23)C(=O)N1Cc1ccccc1 | inconclusive: 7.94 µM [fluorescent, side channel, full curve] | – |
| CCCCOc1ccc(C2OC34CCCCC3C(C#N)(C#N)C2(C#N)C(=N)O4)cc1 (stereo not drawn) | – | inactive: 8.84% |
| N#C/C(=C(/O)c1ccc([N+](=O)[O-])o1)c1nc2ccccc2[nH]1 | inconclusive: 11.2 µM [inhibitor, partial curve] | – |
| CC1CCN(C(=O)CSc2ccc(-c3ccc(F)cc3)nn2)CC1 | inconclusive: 12.6 µM [fluorescent, side channel, single point] | – |
| COc1ccc(-n2c(CN3CCN(c4ccc(F)cc4)CC3)nc3ccc([N+](=O)[O-])cc3c2=O)c(OC)c1 | inconclusive: 15.8 µM [inhibitor, single point] | – |
| Cc1ccc(C(=O)NC(=S)Nc2ccc(CN3CCCCC3)cc2)c(C)c1 | – | inactive: 0.426% |
| CC1CCN(C(=S)NC(=O)c2ccc(C(C)(C)C)cc2)CC1 | – | inactive: -6.9% |
| CSCCC(NC(C)=O)C(=O)Oc1ccc2c3c(c(=O)oc2c1)CCCC3 (stereo not drawn) | – | inactive: 0.671% |
| O=C(O)c1ccc(/C=N/n2cc(-c3ccccc3)[nH]c2=S)cc1 | inconclusive: 31.6 µM [fluorescent, side channel, single point] | – |
| C/C(=N\NC(=O)C(C)Oc1ccc([N+](=O)[O-])cc1)c1ccccn1 (stereo not drawn) | – | inactive: 8.58% |
| COc1ccc(S(=O)(=O)NCC(=O)N(CC(=O)NCC2CCCO2)Cc2ccccc2)cc1 (stereo not drawn) | – | inactive: -0.824% |
| CCN1CCN(CCNC(=O)c2ccc(CS(=O)(=O)c3c(Cl)cccc3Cl)o2)CC1 | inconclusive: 8.91 µM [inhibitor, single point] | – |
| Cc1ccc(-c2cc(-c3ccco3)c3c(N)c(C(=O)NN)oc3n2)cc1 | inconclusive: 31.6 µM [quencher, side channel, partial curve, poor fit] | – |
| COc1ccc(C2=NOC(C(=O)NCc3cccnc3)C2)cc1OC (stereo not drawn) | inconclusive: 1.58 µM [inhibitor, partial curve, poor fit] | – |
| CCOCCCNC(=O)C(NC(=O)c1ccc(NC(C)=O)cc1)c1ccc(Cl)cc1 (stereo not drawn) | inconclusive: 10 µM [inhibitor, single point] | – |
| CC(=O)Nc1ccc(Sc2ncccc2C(=O)Nc2ccc(OC(F)(F)F)cc2)cn1 | inconclusive: 1.41 µM [fluorescent, side channel, full curve] | – |
| O=C(COC(=O)CNS(=O)(=O)/C=C/c1ccccc1)Nc1cc(S(=O)(=O)N2CCCCC2)ccc1Cl | inconclusive: 89.1 µM [inhibitor, single point] | – |
| CN1C/C(=C\c2ccc(N3CCOCC3)cc2)C(=O)/C(=C/c2ccc(N3CCOCC3)cc2)C1 | inconclusive: 25.1 µM [fluorescent, side channel, partial curve] | – |

| Compound | Potency | activity change, negative = inhibition |
| --- | --- | --- |
| Cc1ccc(Cl)cc1NC(=O)C[n+]1ccc(Cc2ccc([N+](=O)[O-])cc2)cc1 | – | inactive: 11.6% |
| CC(C)c1nnc(NC(=O)c2nc(S(=O)(=O)Cc3ccc(F)cc3)ncc2Cl)s1 | inconclusive: 44.7 µM [inhibitor, single point] | – |
| CCOC(=O)c1c(N2C(=O)Nc3ccccc3N2O)n[nH]c1-c1cccc(OC)c1 | inconclusive: 50.1 µM [fluorescent, side channel, single point] | – |
| Brc1csc(C=Nc2ccc3c(c2)OCCOCCOCCOCCO3)c1 | inconclusive: 89.1 µM [fluorescent, side channel, single point] | – |
| S=C(NCCN1CCOCC1)N/N=C/c1c2ccccc2cc2ccccc12 | inconclusive: 44.7 µM [fluorescent, side channel, single point] | – |
| O=C(CCNC(=O)c1ccco1)Nc1ccc(OC(F)F)cc1 | inconclusive: 12.6 µM [fluorescent, side channel, single point] | – |
| CN(C)CCNc1ncnc2c1sc1nc(N3CCCC3)c3c(c12)CC(C)(C)OC3 | inconclusive: 25.1 µM [quencher, side channel, partial curve] | – |
| CCOC(=O)N1CCN(/C=C(\C#N)c2nc3ccccc3s2)CC1 | inconclusive: 25.1 µM [fluorescent, partial curve] | – |
| O=C(COc1ccc2c(c1)OCO2)Nc1ccc2c(c1)oc1ccccc12 | – | inactive: 59.8% |
| C(=N\Nc1nc(-c2ccccc2)cs1)/c1ccco1 | inconclusive: 11.2 µM [inhibitor, single point] | – |
| O=C(NCc1n[nH]c(=S)n1-c1ccc(Cl)c(Cl)c1)c1ccco1 | – | inactive: 23% |
| O=C(O)CN1C(=O)/C(=C\c2ccccc2OCc2ccc(Cl)cc2)SC1=S | inconclusive: 31.6 µM [fluorescent, side channel, single point] | – |
| O=C(NCc1ccccc1Br)c1ccncc1 | inconclusive: 56.2 µM [quencher, side channel, single point] | – |
| Cc1cc(C(=O)CSc2nc3ccc(Cl)cc3[nH]2)c(C)n1C | – | inactive: 9.57% |
| CN(C)c1ccc(C(=O)NCCCSc2ccccc2)cc1 | inconclusive: 15.8 µM [fluorescent, side channel, single point] | – |
| COc1ccc(CNc2ccc([N+](=O)[O-])cn2)cc1 | inconclusive: 44.7 µM [inhibitor, single point] | – |
| CCCCCCn1c(=O)[nH]c2nc3cc(N)c(C)cc3nc2c1=O | – | inactive: -0.338% |
| Cc1nn(Cc2ccccc2)c(C)c1NC(=O)CCCn1nc(C)c([N+](=O)[O-])c1C | – | inactive: -3.73% |
| Clc1ncc(CN2CCN(c3ccccc3)CC2)s1 | inconclusive: 70.8 µM [fluorescent, single point] | – |
| COc1ccc(NS(=O)(=O)c2cc(NC(=O)C3CCCO3)ccc2N2CCCCC2)cc1 (stereo not drawn) | – | inactive: -4.78% |
| CCc1ccc2[nH]c3nc(N/N=C/c4ccc(O)cc4O)nnc3c2c1 | inconclusive: 22.4 µM [quencher, side channel, partial curve] | – |

Entries listed so far that have a cyano group:

| Compound | Potency | activity change, negative = inhibition |
| --- | --- | --- |
| Cc1ccc(N=Cc2cc3c(cc2O)OC(N)=C(C#N)C3c2ccccc2)cc1 (stereo not drawn) | inconclusive: 70.8 µM [fluorescent, side channel, single point] | – |
| CCCCOc1ccc(C2OC34CCCCC3C(C#N)(C#N)C2(C#N)C(=N)O4)cc1 (stereo not drawn) | – | inactive: 8.84% |
| N#C/C(=C(/O)c1ccc([N+](=O)[O-])o1)c1nc2ccccc2[nH]1 | inconclusive: 11.2 µM [inhibitor, partial curve] | – |
| CCOC(=O)N1CCN(/C=C(\C#N)c2nc3ccccc3s2)CC1 | inconclusive: 25.1 µM [fluorescent, partial curve] | – |
